This experiment concerns the target T1, CLPB-V5-TurboID (full-length human caseinolytic peptidase B fused to V5 and TurboID) (human) (UniProt Q9H078).
T1 sequence: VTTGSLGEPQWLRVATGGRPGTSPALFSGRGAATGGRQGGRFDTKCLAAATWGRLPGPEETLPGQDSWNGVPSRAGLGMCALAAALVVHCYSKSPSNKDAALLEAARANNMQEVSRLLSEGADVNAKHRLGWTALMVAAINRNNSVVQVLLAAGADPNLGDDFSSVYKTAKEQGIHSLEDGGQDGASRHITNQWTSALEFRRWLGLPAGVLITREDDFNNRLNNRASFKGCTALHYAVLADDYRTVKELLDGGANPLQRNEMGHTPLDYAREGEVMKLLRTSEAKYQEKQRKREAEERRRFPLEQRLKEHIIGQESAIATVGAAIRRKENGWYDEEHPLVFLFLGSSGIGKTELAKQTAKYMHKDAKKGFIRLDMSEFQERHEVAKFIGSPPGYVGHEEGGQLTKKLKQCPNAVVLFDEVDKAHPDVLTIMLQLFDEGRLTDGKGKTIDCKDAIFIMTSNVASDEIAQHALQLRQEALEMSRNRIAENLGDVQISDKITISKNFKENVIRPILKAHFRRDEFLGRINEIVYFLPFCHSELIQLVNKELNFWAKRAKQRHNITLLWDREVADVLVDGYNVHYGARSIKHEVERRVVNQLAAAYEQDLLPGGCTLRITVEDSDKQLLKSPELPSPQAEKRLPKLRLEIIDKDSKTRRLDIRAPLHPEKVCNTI
The experiment can be described thus: proximity labelling; CLPB-V5-TurboID co-expressed with EGFP, EGFP-HTT-Q23 or EGFP-HTT-Q79 in HEK293T cells; 50 uM biotin, 30 min, 37 °C; lysis in 20 mM HEPES-NaOH pH 7.5, 150 mM NaCl, 2 mM CaCl2, 2 mM MgCl2, 1% Triton X-100; streptavidin pull-down of biotinylated proteins and anti-GFP blot (results and legend).

The chains behind the UniProt entries cited, without tags or fusion partners. Residues count along the entry.
UniProt P42858, residues 1-90: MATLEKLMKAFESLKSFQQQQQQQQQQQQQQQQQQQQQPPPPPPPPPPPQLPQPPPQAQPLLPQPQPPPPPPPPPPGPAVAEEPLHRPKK

Results are given in words; binding and its absence hold for the method and conditions named. In cells and extracts the contact can be indirect. These calls come from enrichment with a bait or labelling near it, and not all partners need be listed. Where a sequence is shown, tags or fusion partners need not be part of it.

“EGFP-tagged HTT-Q79 (exon 1 fragment of mutant human huntingtin, aa 1-146) (domain or fragment)”: the binding result is “binds”.
In the case of “EGFP-tagged HTT-Q23 (exon 1 fragment of wild-type human huntingtin, aa 1-90) (from UniProt P42858 1-90) (domain or fragment)”, the binding entry is listed as “binds”.

The values are drawn from publication PMC12712926.
